These are yes or no findings as the source states them, for the method shown. Some binding calls cover weakened binding; strength is not graded here.
Target: A1 domain of tenascin-C (TNC-A1) (UniProt P24821)
Assay: real-time interaction analysis, BIAcore 3000

The chains behind the UniProt entries cited, without tags or fusion partners. Residues count along the entry.
UniProt P24821, residues 1073-1163: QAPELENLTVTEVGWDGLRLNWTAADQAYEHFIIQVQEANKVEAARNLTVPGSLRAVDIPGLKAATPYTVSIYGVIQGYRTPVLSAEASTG

binding: binds
B1: F16 human monoclonal antibody (original clone 4A1-F16) (antibody, V domains shown)
VH: EVQLLESGGGLVQPGGSLRLSCAASGFTFSRYGASWVRQAPGKGLEWVSAISGSGGSTYYADSVKGRFTISRDNSKNTLYLQMNSLRAEDTAVYYCAKAHNAFDYWGQGTLVTVSR
VL: SSELTQDPAVSVALGQTVRITCQGDSLRSYYASWYQQKPGQAPVLVIYGKNNRPSGIPDRFSGSSSGNTASLTITGAQAEDEADYYCNSSVYTMPPVVFGGGTKLTVL

Source: patent US20110250170A1 (PHILOGEN S P A, published 2011)
